Measured values taken from article PMC6713165, “Identification of 1H-pyrazolo[3,4-b]pyridine derivatives as potent ALK-L1196M inhibitors” (Journal of Enzyme Inhibition and Medicinal Chemistry, 2019).
Read-outs that look alike come from different tables or passages of the source.

Assay: Permeability assessment using Caco-2 cells
Assay type: in vitro ADME
Settings: human
Experimental: Stock solutions (10 mM) of reference compounds and 10g were diluted to a concentration of 10 µM with the transport buffer (HBSS + 1%BSA) and the test compounds were applied to the apical or basolateral side of the cell monolayer. Permeability of the test compounds from A to B direction or B to A direction was assessed in duplicate over a 120 min incubation at 37 °C and 5% CO2 with a relative humidity of 95%. In addition, the efflux ratio of each compound was also determined. Reference compounds and 10g were quantified by LC-MS/MS analysis based on the peak area ratio of analyte/the internal standard.

`CC(C)NCC(O)COc1ccc(CC(N)=O)cc1` (stereo not drawn) [Atenolol] showed a Papp A→B at 120 min, 10 µM (Caco-2, Caco-2, 10 µM, 120 min, 37 °C, HBSS + 1%BSA, read-out: Mean Papp A to B) of 1.69 ×10⁻⁶ cm/s, a recovery at 120 min, 10 µM (Caco-2, Caco-2, 10 µM, 120 min, read-out: Mean recovery % A to B) of 92.6% and a recovery at 120 min, 10 µM (Caco-2, Caco-2, 10 µM, 120 min, read-out: Mean recovery % B to A) of 91.6%. It also gave a Papp A→B at 120 min, 10 µM (Caco-2, Caco-2 permeability class from Papp (A to B), read-out: Rank Papp) of under 2.5 ×10⁻⁶ cm/s, an efflux ratio at 120 min, 10 µM (Caco-2, 10 µM, 120 min) of 1.27 and a Papp B→A at 120 min, 10 µM (Caco-2, 10 µM, 120 min, 37 °C, HBSS + 1%BSA) of 2.14 ×10⁻⁶ cm/s.
